Values from PubChem BioAssay AID504764 (Drosophila RNAi Screening Center, 2011).
The deposit covers about 22,000 reagents; below is an unselected part of those that have a named target and a result. In the full data, 403 (1.9%) were called active. 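Unnormalised raw counts per well; ratio z-scores behind the hit calls and whether each hit raises or lowers signal are not deposited.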 Unmarked entries are inactive. Reagents against one gene are numbered here. Not stated in the record: the amount of reagent.

- Test: 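Genome-wide screen for regulators of Notch-driven gene expression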 (primary screen)
- Cell system: Drosophila Kc167 cells
- Reagents: long dsRNA against Drosophila genes
- Timing: about 5 days (4 days dsRNA, then 24 h after transfection)
- Treatment: transfection of constitutively active membrane-tethered Notch lacking the extracellular domain, read 24 h later
- Detection: 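Light from a Notch-responsive E(spl)m3 luciferase reporter under active Notch, with control-promoter and no-Notch reporter wells to normalise; raw counts from paired wells a and b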
- Direction: induced reporter light, run 1, well a and induced reporter light, run 1, well b: higher = more light from the Notch target reporter with active Notch; control promoter light, run 1, well a and control promoter light, run 1, well b: higher = more light from the viral control promoter (cell number, transfection, viability); uninduced reporter light, run 1, well a: higher = more light from the Notch target reporter without active Notch
- Call rule: 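Wells with low control signal or poorly matching duplicates excluded; duplicates averaged; per source plate, z beyond ±2 for induced/control log2 ratio or beyond ±1.8 for induced/uninduced marks a hit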
- Calls: active = modifier hit (raised or lowered Notch signal); inactive = not a hit

| gene | reagent | induced reporter light, run 1, well a | induced reporter light, run 1, well b | control promoter light, run 1, well a | control promoter light, run 1, well b | uninduced reporter light, run 1, well a |
| --- | --- | --- | --- | --- | --- | --- |
| IntS11 | 1 | 1.59e5 (active) | 1.87e5 | 2.78e5 | 2.34e5 | 26335 |
| CG9297 | 1 | 1.20e5 | 1.07e5 | 89015 | 71355 | 9815 |
| hale | 1 | 1.43e5 | 1.34e5 | 1.38e5 | 1.37e5 | 8375 |
| CG6508 | 1 | 1.36e5 | 1.30e5 | 74910 | 87420 | 18700 |
| CG32576 | 1 | 98755 | 1.14e5 | 1.20e5 | 97635 | 7670 |
| CG7091 | 1 | 1.27e5 | 1.22e5 | 1.52e5 | 1.61e5 | 10215 |
| CG7091 | 2 | 4.19e5 | 3.30e5 | 2.96e5 | 2.86e5 | 25530 |
| Tailor | 1 | 57695 | 73785 | 62705 | 51965 | 8595 |
| CG30385 | 1 | 2.50e5 | 2.20e5 | 2.66e5 | 2.70e5 | 22210 |
| CG9555 | 1 | 1.25e5 | 1.40e5 | 82115 | 96270 | 15635 |
| CG11149 | 1 | 1.65e5 (active) | 1.11e5 | 1.82e5 | 1.74e5 | 11095 |
| CG5114 | 1 | 1.50e5 | 1.64e5 | 1.42e5 | 1.56e5 | 13565 |
| CG6726 | 1 | 1.76e5 | 1.64e5 | 2.05e5 | 2.30e5 | 14330 |
| Mt2 | 1 | 1.97e5 | 2.11e5 | 1.87e5 | 1.96e5 | 16578 |
| zyd | 1 | 95845 | 91105 | 95850 | 1.30e5 | 10835 |
| CG34244 | 1 | 1.75e5 | 2.09e5 | 2.02e5 | 2.93e5 | 19282 |
| CG18269 | 1 | 2.05e5 | 1.73e5 | 1.77e5 | 1.51e5 | 11955 |
| Fit2 | 1 | 1.35e5 | 1.29e5 | 81195 | 79130 | 9010 |
| Map205 | 1 | 95800 (active) | 95055 | 1.88e5 | 2.21e5 | 8215 |
| aPKC | 1 | 2.08e5 | 1.73e5 | 2.33e5 | 2.48e5 | 16180 |
| aPKC | 2 | 99395 | 1.04e5 | 1.04e5 | 1.05e5 | 7545 |
| CG30159 | 1 | 2.25e5 | 2.05e5 | 2.18e5 | 2.09e5 | 14242 |
| Nin | 1 | 1.74e5 | 1.37e5 | 1.36e5 | 1.64e5 | 11145 |
| Su(z)2 | 1 | 9735 | 7175 | 11035 | 6805 | 2620 |
| RasGAP1 | 1 | 1.63e5 | 1.34e5 | 2.84e5 | 1.83e5 | 4420 |
| Rpn8 | 1 | 13775 | 11195 | 15670 | 21065 | 770 |
| Sptz | 1 | 69335 | 83570 | 67340 | 52770 | 5510 |
| LysX | 1 | 72235 (active) | 1.34e5 | 1.99e5 | 2.47e5 | 4810 |
| RabX1 | 1 | 1.54e5 | 1.59e5 | 1.77e5 | 1.74e5 | 12145 |
| RfC3 | 1 | 1.50e5 | 1.64e5 | 73810 | 86445 | 18370 |
| brn | 1 | 1.59e5 | 1.67e5 | 2.28e5 | 2.26e5 | 10540 |
| Klp67A | 1 | 2.62e5 | 1.71e5 | 2.71e5 | 2.45e5 | 11725 |
| mnd | 1 | 1.30e5 | 1.43e5 | 1.86e5 | 2.05e5 | 8410 |
| sli | 1 | 68680 | 96390 | 1.23e5 | 88510 | 8350 |
| p130CAS | 1 | 2.98e5 | 2.22e5 | 2.00e5 | 2.06e5 | 19655 |
| p130CAS | 2 | 48200 | 41365 | 60250 | 72240 | 3615 |
| CG1227 | 1 | 1.31e5 | 1.61e5 | 1.17e5 | 89705 | 11935 |
| Fancl | 1 | 77485 | 93855 | 61975 | 58945 | 3400 |
| Sry-delta | 1 | 68035 | 55450 | 63665 | 61180 | 5065 |
| Mical | 1 | 96675 | 1.05e5 | 81735 | 97775 | 5380 |
| Mical | 2 | 1.19e5 | 87365 | 1.29e5 | 1.10e5 | 8180 |
| Mical | 3 | 1.04e5 | 95915 | 77390 | 70830 | 5710 |
| Mical | 4 | 71025 | 88095 | 73905 | 47265 | 7545 |
| CG2972 | 1 | 1.54e5 | 1.44e5 | 1.81e5 | 1.39e5 | 8340 |
| comm2 | 1 | 33110 | 25375 | 24245 | 20670 | 5870 |
| comm2 | 2 | 1.52e5 | 1.75e5 | 2.20e5 | 2.28e5 | 9605 |
| CCT8 | 1 | 26755 | 28340 | 28085 | 20655 | 2820 |
| CG13285 | 1 | 3.22e5 | 2.93e5 | 3.48e5 | 3.64e5 | 15430 |
| Grip128 | 1 | 1.12e5 | 1.23e5 | 1.49e5 | 1.24e5 | 11555 |
| CG13239 | 1 | 1.40e5 | 89075 | 1.07e5 | 85655 | 7840 |

Records listed so far whose target name begins with A or a (2):
| gene | reagent | induced reporter light, run 1, well a | induced reporter light, run 1, well b | control promoter light, run 1, well a | control promoter light, run 1, well b | uninduced reporter light, run 1, well a |
| --- | --- | --- | --- | --- | --- | --- |
| aPKC | 1 | 2.08e5 | 1.73e5 | 2.33e5 | 2.48e5 | 16180 |
| aPKC | 2 | 99395 | 1.04e5 | 1.04e5 | 1.05e5 | 7545 |
